Measured values published in PubChem BioAssay AID504467 (National Center for Advancing Translational Sciences (NCATS), 2011).
The whole screen tested about 330,000 compounds, of which about 7,700 (2.3%) were called active. This list was built around the results that the source calls inconclusive (neither active nor inactive); the mix of calls is not that of the screen. The call rests on the fitted dose curve; in most records, active means well fitted inhibition curve with a large enough effect; inconclusive means small, poorly fitted or top-dose-only effect, or effect the other way; inactive means flat fitted curve, though single readings scatter. Potencies of inconclusive entries are doubtful fits and often do not repeat.

test: qHTS screen for small molecules that inhibit ELG1-dependent DNA repair in human embryonic kidney (HEK293T) cells expressing luciferase-tagged ELG1; conditions: HEK293T ELG1-luciferase reporter, luminescence, 16 h, DNA damage induced by 5-fluorouridine; series mostly up to 46.1 µM; further: nearly all actives have a fitted effect of over 55% in size
Method in brief: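 Cells (2,000 per well) received 5-fluorouridine plus test compound or DMSO and were incubated 16 hr at 37 °C, 5% CO2. Luciferase activity was read by luminescence 30 min after ONE-Glo addition; signal suppression marked inhibition of damage-induced ELG1 function.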
Potency means the concentration at half of the fitted maximal effect.

Compound | Potency
O=C(N/N=C/c1ccccc1OCc1ccccc1Cl)c1cccnc1 | inactive
Cc1ccc(NC(=O)CNCc2ccccn2)cc1S(=O)(=O)N(C)C | inconclusive: 29.1 µM [activator, single point]
CCOc1ccc2oc(C(=O)O)c(C)c2c1 | inconclusive: 25.9 µM [activator, single point]
S=C1NC2(CCCCC2)Nc2ccccc21 | inactive
CC(C)(C)c1cc(C(=O)NNC(=O)Nc2ccccc2)n(Cc2ccccc2)n1 | inactive
Cc1ccc(-c2nnc(CSc3nnc(C)s3)o2)cc1 | inconclusive: 15.8 µM [activator, partial curve]
CCOC(=O)C1=C(COC(=O)CCc2ccc(CC)cc2)NC(=O)NC1C (stereo unspecified) | inactive
CCCCCCCc1nc2sc3c(c2c(=O)n1N)CC(C)(C)OC3 | inconclusive: 20.6 µM [inhibitor, single point]
COc1cccc(/C=C2\SC(=O)N(CCC(=O)NC3CCS(=O)(=O)C3)C2=O)c1 (stereo unspecified) | inconclusive: 8.2 µM [activator, partial curve]
Cc1ccc(C)c(S(=O)(=O)Nc2ccc3sc(C)nc3c2)c1 | inconclusive: 29.1 µM [inhibitor, single point]
N#Cc1ccc(CSc2ccc(S(=O)(=O)N3CCCC3)cn2)cc1 | inconclusive: 20.6 µM [inhibitor, single point]
CC1=CC(C)(C)N(S(=O)(=O)c2ccc(C)cc2)c2ccc(C)cc21 | inactive
C=CCN1C(=O)/C(=C/c2ccccc2)S/C1=N/c1nccs1 | inactive
CCOCCCNC(=O)c1ccc(C2SCC(=O)N2Cc2ccccc2)cc1 (stereo unspecified) | inactive
CCOc1cnc(-c2ccc(OC)cc2)o1 | inconclusive: 14.6 µM [activator, partial curve]
Cc1cc(C)c2oc(-c3ccc(Cl)c(NC(=O)c4ccc(C#N)cc4F)c3)nc2c1 | inconclusive: 29.1 µM [activator, single point]
CSc1nnc(-c2cc3ccccc3cc2O)n1C | inconclusive: 18.4 µM [activator, partial curve, poor fit]
COCCNC(=O)/C(C#N)=C/c1c(N2CCN(c3ccccc3)CC2)nc2c(C)cccn2c1=O | inconclusive: 23.1 µM [inhibitor, single point]
CNS(=O)(=O)c1ccc(Oc2ccc(S(=O)(=O)NC)cc2)cc1 | inconclusive: 11.6 µM [inhibitor, partial curve]
Cn1c(=O)[nH]c(=O)c2c1nc1n2CC(O)CN1c1ccccc1 (stereo unspecified) | inactive
N#CC1(NC(=O)COC(=O)c2cccc(-n3cnnn3)c2)CCCCC1 | inconclusive: 4.61 µM [activator, single point]
Cc1c(Cl)cccc1NC(=O)CSC(N)=O | inactive
CCCc1ccc(C(=O)CN2C(=O)C(=O)N(C3CCCC3)C2=O)cc1 | inconclusive: 10 µM [activator, partial curve]
COc1ccccc1/C=C1\Cc2ccccc2C1=O | inconclusive: 23.1 µM [activator, partial curve]

Single values from the entries so far:
Potency with CCCCCCCc1nc2sc3c(c2c(=O)n1N)CC(C)(C)OC3 is entered as inconclusive: 20.6 µM [inhibitor, single point]
Potency with O=C(N/N=C/c1ccccc1OCc1ccccc1Cl)c1cccnc1 is entered as inactive

Additional records follow:

Compound | Potency
COc1ccc(C2CC(c3ccccc3)=NN2C(=O)CSc2ncn[nH]2)cc1 (stereo unspecified) | inconclusive: 8.2 µM [activator, partial curve]
O=C(Nc1ccccc1)OCCNC(=O)c1cccc(Br)c1 | inactive
Cc1nc2nc(-c3cccnc3)nn2c(C)c1Cl | inconclusive: 20.6 µM [activator, partial curve, poor fit]
O=C(c1cc2c(=O)oc3ccccc3c2s1)N1CCOCC1 | inconclusive: 29.1 µM [activator, single point]
CCN(CC)S(=O)(=O)c1ccc(S(=O)(=O)NCC2CCCO2)cc1 (stereo unspecified) | inactive
O=c1nc2c(-c3cccc(Br)c3)n[nH]n2c2ccccc12 | inconclusive: 9.2 µM [activator, partial curve]
CCc1cc(=O)[nH]c(SCC(=O)NCc2ccc3c(c2)OCO3)n1 | inactive
CCOC(=O)c1cc(NC(=O)C2C3CCC(O3)C2C(=O)O)cc(C(=O)OCC)c1 (stereo unspecified) | inconclusive: 23.1 µM [activator, single point]
O=S(=O)(c1ccc(Cl)c(F)c1)N1CCC(c2nc(-c3ccncc3)no2)CC1 | inconclusive: 35.5 µM [inhibitor, single point]
Cc1ccc(C(=O)c2sc(Nc3ccccc3)c(C#N)c2N)cc1 | inconclusive: 29.1 µM [inhibitor, single point]
CC(C)(C)C1=CC(=O)C(=O)C(C(C)(C)C)=C1 | inconclusive: 20.6 µM [inhibitor, single point]
COc1cccc(CN(C)CC(=O)Nc2cccc(S(N)(=O)=O)c2)c1OC | inactive
Cc1ccc2c(cnn2C(=O)CCCC(=O)NCc2cccc(F)c2)c1 | inconclusive: 16.4 µM [activator, partial curve, poor fit]
O=C(Nc1cccc(C(F)(F)F)c1)c1cc2ncc(Br)cn2n1 | inconclusive: 25.9 µM [activator, single point]
O=C(O)c1cccc(S(=O)(=O)NCC2COc3ccccc3O2)c1 (stereo unspecified) | inactive
CCOc1cc(/C=C(/C#N)c2nc3ccccc3[nH]2)ccc1OCc1ccc(C(=O)O)o1 | inactive
COC(=O)c1c(NC(=O)c2ccccc2OC)sc(C(=O)N2CCOCC2)c1C | inactive
COc1c(C)cc(Br)cc1C(=O)Nc1ccc(Cc2ccncc2)cc1 | inconclusive: 29.1 µM [inhibitor, single point]
COc1cccc(-c2nc(CS(=O)CC(=O)NCc3ccc4c(c3)OCO4)c(C)o2)c1 (stereo unspecified) | inactive
O=S(=O)(c1ccccc1)N1CCC(=NO)CC1 | inconclusive: 0.184 µM [activator, partial curve, poor fit]
CCOC(=O)c1ccc(CNC(=O)c2cc(COc3ccccc3SC)on2)o1 | inconclusive: 3.26 µM [activator, full curve]
Cc1ccc(C(C[N+](=O)[O-])n2nc(C)cc2C)cc1 (stereo unspecified) | inconclusive: 25.9 µM [activator, single point]
Cc1ccc(Nc2c([N+](=O)[O-])c(=O)oc3ccccc23)cc1C | inactive
O=C(OCc1c(-c2ccccc2)ncc2ccccc12)N1CCOCC1 | inconclusive: 13 µM [activator, partial curve]

Compound | Potency
COc1ccc(S(=O)(=O)NCCC(=O)N2CCCN(C)CC2)cc1 | inconclusive: 35.5 µM [activator, single point]
COc1ccc2[nH]c3c(c2c1)CCN1C(=O)C(CC(=O)NCCN2CCOCC2)C[C@H](C(=O)N2CCOCC2)[C@@]31CCC1CCCC1 (stereo partly specified) | inconclusive: 32.6 µM [activator, partial curve, poor fit]
Cc1ccc(C(=O)Nc2nc(-c3ccccn3)cs2)o1 | inconclusive: 29.1 µM [activator, single point]
C/C=C\C=C/C(=O)Nc1cccc(C2=NOC3(C2)C[C@@H](C(N)=O)N(C(=O)/C=C/CC)C3)c1 (stereo partly specified) | inconclusive: 23.1 µM [activator, single point]
Cc1cc(N2CCN(c3ccccn3)CC2)n2cc(-c3ccccc3)nc2n1 | inconclusive: 18.4 µM [inhibitor, partial curve, poor fit]
O=C(CSc1ncccc1C(=O)O)c1ccccc1F | inconclusive: 20.6 µM [activator, single point]
CC(C)c1ccc(/C=N/NC(=O)c2ccc(-n3cnnn3)cc2)cc1 | inconclusive: 29.1 µM [inhibitor, partial curve, poor fit]
CCN(C(=O)c1cn(C)c(=O)c2cc(OC)c(OC)cc12)c1cc(C)ccc1C | inconclusive: 5.17 µM [inhibitor, partial curve, poor fit]
COc1ccc(NC(=O)CSc2ccc(-c3sc(C)nc3C)nn2)cc1OC | inconclusive: 25.9 µM [inhibitor, partial curve, poor fit]
O=S(=O)(Nc1ncccn1)c1cc(Cl)ccc1Cl | inactive
COc1ccc(CCNC(=O)Nc2cc(F)c(F)cc2Cl)cc1OC | inactive
COc1ccc(NC(=O)N2CCN(c3nc(-c4cccc(OC)c4)cs3)CC2)cc1 | active: 18.4 µM
COC(=O)c1ccc(OCC(O)CN(CCO)CC(O)Cn2ccc3ccccc32)cc1 (stereo unspecified) | inconclusive: 32.6 µM [inhibitor, partial curve, poor fit]
O=C(Nc1cccc(O)c1)c1noc2c1CCCCC2 | inconclusive: 3.26 µM [activator, partial curve]
COC(=O)CN(C)C(=O)c1cccc(OC2CCN(S(=O)(=O)N(C)C)CC2)c1 | inactive
CCCCOc1ccc(C(=O)N2CCN(c3ccc(N4CCOCC4)nn3)CC2)cc1 | inconclusive: 29.1 µM [inhibitor, single point]
Cc1ccc(/C=N/NC(=S)NC2CCS(=O)(=O)C2)cc1 (stereo unspecified) | inactive
Cc1nc2cc(NC(=O)c3ccc(Br)s3)ccc2s1 | inconclusive: 1.46 µM [activator, partial curve]
CCOc1ccc(C(=O)CSCCC(=O)O)cc1 | inconclusive: 25.9 µM [activator, single point]
CC1=C(C)/C(=N\OS(=O)(=O)c2ccc(C)cc2)C=CC1=O | inconclusive: 29.1 µM [inhibitor, single point]
Nc1nnc(SCc2cccnc2)s1 | inconclusive: 23.1 µM [inhibitor, partial curve, poor fit]
CCCCC(=O)OCC(=O)c1cc(C)n(-c2c(C)n(C)n(-c3ccccc3)c2=O)c1C | inactive
COc1ccccc1NC(=O)Cc1csc(NC(=S)Nc2ccc(C)cc2)n1 | inconclusive: 22.4 µM [inhibitor, single point]

Reprinted at random: three entries already listed, in no set order.
Compound | Potency
CCCCC(=O)OCC(=O)c1cc(C)n(-c2c(C)n(C)n(-c3ccccc3)c2=O)c1C | inactive
Cc1cc(N2CCN(c3ccccn3)CC2)n2cc(-c3ccccc3)nc2n1 | inconclusive: 18.4 µM [inhibitor, partial curve, poor fit]
COC(=O)CN(C)C(=O)c1cccc(OC2CCN(S(=O)(=O)N(C)C)CC2)c1 | inactive
